# Values from PubChem BioAssay AID1671195 (Yale University, 2021).
# Purpose: 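Regulators of LDL receptor activity judged by labelled LDL uptake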 (primary screen)
# Cells: human Huh7 hepatoma cells
# Knock-down reagent: siRNA pool against human genes, 18 nM
# Duration: about 2 to 2.5 days of knockdown, then 8 h LDL uptake
# Conditions: DiI-labelled LDL at 30 µg/ml for 8 h, in lipoprotein-deficient serum medium
# Measurement: 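Per-cell DiI-LDL intensity by automated imaging; well means scaled to the plate median and given as a robust z-score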
# Direction: robust z-score: higher = more LDL uptake after knockdown
# Active means: 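Active when two or more replicates show a robust z-score above 2 or below -2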
# Shown is one part, drawn at random, of about 22,000 deposited reagents. In the full data, about 1,510 (6.9%) are marked active. 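Active includes knockdowns raising or lowering LDL uptake; positive z-scores mean more uptake, negative mean less.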
"robust z-score, replicate 1","robust z-score, replicate 2","robust z-score, replicate 3",Call,Gene,PubChem SID
-0.486,-1.15,-0.848,inactive,B3GALT2,SID442900938
0.308,0.276,-0.276,inactive,KIAA1671,SID442892968
-0.789,-0.752,-0.331,inactive,TMEM89,SID442899462
0.664,0.453,0.258,inactive,ZNF705A,SID442890139
-0.0301,-0.331,-0.471,inactive,MOGAT1,SID442896481
-0.23,0.211,-0.285,inactive,STOX2,SID442894795
-0.621,1.52,0.33,inactive,ECT2,SID442890493
2.72,3.07,3.42,active,PPP1R1C,SID442883382
0.309,0.385,1.07,inactive,PIGO,SID442889243
0.141,-0.22,-2.02,inactive,OR2H1,SID442900017
-0.437,-0.385,-0.636,inactive,LOC145660 (retired record),SID442898329
2.24,0.973,3.09,active,MED15,SID442883978
1.02,1.07,0.681,inactive,FBXO43,SID442887399
-0.878,-0.025,-0.674,inactive,PLA2G3,SID442898679
0.268,0.377,0.445,inactive,ZNF430,SID442890845
0.657,0.65,0.816,inactive,OR8H1,SID442888506
-0.672,-1.43,-1.12,inactive,MTERF2,SID442902434
-0.185,-0.381,-0.487,inactive,TAS2R60,SID442897136
-0.608,-0.342,-0.463,inactive,ALG5,SID442898192
-0.222,0.381,0.937,inactive,MAP3K15,SID442890823
3.59,3.38,3.14,active,LOC400796 (retired record),SID442883295
0.756,-0.574,-0.319,inactive,NUTF2,SID442894282
1.08,1.44,1.66,inactive,NCR3,SID442885707
0.0525,0.174,0.103,inactive,LOC441434 (retired record),SID442892925
0.819,-0.207,-0.263,inactive,HELLS,SID442892856
-0.275,0.277,-0.00598,inactive,GP6,SID442893892
-0.0578,1.05,0.587,inactive,CASP9,SID442889673
-0.983,-1.04,-1.36,inactive,LOC440357 (retired record),SID442902683
-0.521,-0.522,-0.33,inactive,THTPA,SID442898062
-0.0338,-0.416,0.0178,inactive,TMEM196,SID442895185
1.35,0.701,0.652,inactive,FCRL4,SID442887492
1.44,0.533,0.702,inactive,PACRGL,SID442887537
0.863,0.43,0.373,inactive,LOC400987 (retired record),SID442889461
-0.411,0.448,0.406,inactive,LOC391352 (retired record),SID442892586
-0.714,-0.529,-0.573,inactive,ALDH3B2,SID442899333
0.00517,-1.32,-0.376,inactive,ACSM6,SID442898995
0.0522,-0.00546,-0.154,inactive,MICAL1,SID442894184
-0.225,0.115,0.0839,inactive,LOC401464 (retired record),SID442893956
-0.855,-1.2,-1.53,inactive,SHLD2P3,SID442903006
-0.18,-0.0743,0.176,inactive,ACSS2,SID442894101
0.0175,0.103,-0.417,inactive,HES5,SID442894768
0.154,1,0.654,inactive,FUT9,SID442889165
0.257,2.47,0.0311,inactive,SIRT6,SID442887409
0.9,1.3,1.68,inactive,UGT2B11,SID442886009
-1.11,-1.3,-1.18,inactive,CCNH,SID442903022
-0.632,-1.38,-0.85,inactive,ANXA5,SID442901771
-0.219,0.365,0.64,inactive,CIAO2AP2,SID442891638
-0.716,-0.368,-0.979,inactive,OR4N4,SID442899925
-0.0566,-0.519,-0.54,inactive,SUPT6H,SID442897315
-0.315,-0.566,-0.948,inactive,LOC441467 (retired record),SID442899364
-0.305,0.0732,-0.163,inactive,NR3C2,SID442895088
0.745,0.614,0.445,inactive,GPRC5A,SID442889171
-0.687,-0.609,-0.155,inactive,ARID5A,SID442898301
-1.23,-1.07,-1.42,inactive,EIF4A1,SID442903200
0.939,-0.299,-0.79,inactive,SDC4,SID442894315
-1.47,1.37,0.259,inactive,PACS1,SID442893427
-0.35,-0.272,0.148,inactive,FAT3,SID442895324
0.139,0.506,0.585,inactive,FNDC1,SID442890498
4.48,4.38,2.33,active,COG6,SID442883231
0.553,-0.584,-0.644,inactive,CIRBP,SID442895974
-1.21,-0.198,-0.188,inactive,WRN,SID442898746
-1.48,-1.37,-1.5,inactive,TSC22D1,SID442903966
0.305,-0.605,0.692,inactive,GARIN4,SID442892727
1.53,0.213,0.484,inactive,MAP4K4,SID442888323
-0.473,0.613,-1.02,inactive,TUT4,SID442896615
-0.87,-1.05,1.71,inactive,BCL9,SID442894525
0.765,-0.492,0.881,inactive,PDE1A,SID442890672
-0.0437,-1.42,-1.34,inactive,LINC02389,SID442901651
-0.191,-1.64,-0.195,inactive,TMED7,SID442899837
-0.794,-0.445,-0.243,inactive,SOX11,SID442898401
0.524,1.05,0.971,inactive,DNAJC17,SID442887747
0.264,0.249,0.212,inactive,FUCA1,SID442891817
-0.669,-1.02,-0.761,inactive,LOC400605 (retired record),SID442900850
0.0689,-0.126,0.255,inactive,TRIML1,SID442893295
-0.433,-0.681,-0.896,inactive,ZNF397,SID442899791
-1.91,-1.23,-2.18,active,EDF1,SID442884280
-0.148,0.433,0.121,inactive,NAALADL2,SID442892689
-0.485,0.64,-0.00993,inactive,PHYH,SID442893453
-1.51,-1.26,-1.69,inactive,DDN,SID442904080
-0.096,-0.959,-0.281,inactive,PIGU,SID442897969
1.03,0.353,0.215,inactive,ASPDH,SID442889623
-0.236,0.0854,-0.206,inactive,LOC442480 (retired record),SID442894971
0.833,0.446,0.246,inactive,COQ10B,SID442889791
0.463,-0.0194,0.142,inactive,DGKH,SID442892217
0.969,1.27,1.1,inactive,NTNG2,SID442886595
-0.102,-0.559,-0.813,inactive,CAVIN2,SID442898374
0.874,1.18,0.95,inactive,DCC,SID442887034

An excerpt from above, limited to “robust z-score, replicate 3”:
B3GALT2 [SID442900938]	-0.848
KIAA1671 [SID442892968]	-0.276
TMEM89 [SID442899462]	-0.331
ZNF705A [SID442890139]	0.258
MOGAT1 [SID442896481]	-0.471
STOX2 [SID442894795]	-0.285
ECT2 [SID442890493]	0.33
PPP1R1C [SID442883382]	3.42
PIGO [SID442889243]	1.07
